From the supplement of paper PMC4604168 (melanoma cell lines)
This is one part of the list. Repeats are few or missing, and single values can be far off.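 Imaging used 1,536-well plates; nuclei positive for cleaved PARP by antibody were divided by total DNA-stained nuclei to yield the apoptosis fraction. Doses for screening kept most cells viable, and cell lines differ markedly in resting and induced cleaved-PARP levels.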

Tested on: COLO800
Assay: cleaved PARP positive nuclei fraction relative to DMSO control; melanoma cells; higher = more apoptosis
Settings: library dose: low library concentration; 72 h

Q: How did the “cleaved PARP positive nuclei fraction” value turn out when `C=CCn1c(=O)c2cnc(Nc3ccc(N4CCN(C)CC4)cc3)nc2n1-c1cccc(C(C)(C)O)n1` + Oc1nc(-c2ccc(C(F)(F)F)cc2)nc2c1CSCC2 [XAV939] (first compound 0.02 µM, partner dose 2 µM) was run?
A: 110%

Q: For `Nc1cccc2c1CN(C1CCC(=O)NC1=O)C2=O` (stereo unspecified) [lenalidomide] + CCCCCCCCCCCC1=C(O)C(=O)C=C(O)C1=O [Embelin] (first compound 1 µM, partner dose 1.2 µM), which “cleaved PARP positive nuclei fraction” value is on record?
A: 196%

Q: For `C[C@@H]1CCN(C(=O)CC#N)C[C@@H]1N(C)c1ncnc2[nH]ccc12` + Oc1cc(-c2nc(-c3ccccc3)[nH]c2-c2ccncc2)ccc1Cl [L779450] (first compound 1 µM, partner dose 0.2 µM), which “cleaved PARP positive nuclei fraction” value is on record?
A: 140%

Q: For `Cc1cc(N2CCOCC2)cc2[nH]c(-c3c(NC[C@@H](O)c4cccc(Cl)c4)cc[nH]c3=O)nc12` + Cc1cc([N+](=O)[O-])ccc1NS(=O)(=O)c1cc(Cl)ccc1Cl [FH535] (first compound 0.2 µM, partner dose 1 µM), which “cleaved PARP positive nuclei fraction” value is on record?
A: 231%

Q: With `C=CCn1c(=O)c2cnc(Nc3ccc(N4CCN(C)CC4)cc3)nc2n1-c1cccc(C(C)(C)O)n1` + O=C1NC(=O)/C(=C/c2ccc(-c3ccc(F)cc3O)o2)S1 [AS252424] (first compound 0.02 µM, partner dose 1 µM) as the compound, how does the “cleaved PARP positive nuclei fraction” value read?
A: 110%

Q: How did the “cleaved PARP positive nuclei fraction” value turn out when `Cc1ccc(NC(=O)c2cccc(N(C)C)c2)cc1NC(=O)c1ccc(O)cc1` + N#Cc1c(O)c2c(-c3ccc(-c4ccccc4O)cc3)csc2[nH]c1=O [A769662] (first compound 2 µM, partner dose 2 µM) was run?
A: 126%

Q: How did the “cleaved PARP positive nuclei fraction” value turn out when `Cn1cncc1[C@@](N)(c1ccc(Cl)cc1)c1ccc2c(c1)c(-c1cccc(Cl)c1)cc(=O)n2C` [tipifarnib] + CCN(CC)CCCCNc1ncc2cc(-c3cc(OC)cc(OC)c3)c(NC(=O)NC(C)(C)C)nc2n1 [PD173074] (first compound 0.01 µM, partner dose 0.1 µM) was run?
A: 142%

Q: How did the “cleaved PARP positive nuclei fraction” value turn out when `O=C(CCCCCCC(=O)Nc1ccccc1)NO` [vorinostat] + CCCCCCCCCCCC1=C(O)C(=O)C=C(O)C1=O [Embelin] (first compound 0.08 µM, partner dose 1.2 µM) was run?
A: 87.5%

Q: For `Cn1nnc2c(C(N)=O)ncn2c1=O` [temozolomide] + Cn1cc(/C=C2\C(=O)Nc3cccnc32)c2ccccc21 [GW441756] (first compound 2 µM, partner dose 0.4 µM), which “cleaved PARP positive nuclei fraction” value is on record?
A: 58.2%

Q: With `Nc1cccc2c1CN(C1CCC(=O)NC1=O)C2=O` (stereo unspecified) [lenalidomide] + COc1cc2ncnc(Nc3ccc(Oc4ccccc4)cc3)c2cc1OC [SrcI1] (first compound 1 µM, partner dose 2 µM) as the compound, how does the “cleaved PARP positive nuclei fraction” value read?
A: 71%

Q: For `COc1cc(Nc2ncc(F)c(Nc3ccc4c(n3)NC(=O)C(C)(C)O4)n2)cc(OC)c1OC` [Tamatinib] + CCc1ccc(CCOc2ccc(CC3SC(=O)NC3=O)cc2)nc1 [pioglitazone] (first compound 0.4 µM, partner dose 2 µM), which “cleaved PARP positive nuclei fraction” value is on record?
A: 144%

Q: How did the “cleaved PARP positive nuclei fraction” value turn out when `Cc1nc(Nc2ncc(C(=O)Nc3c(C)cccc3Cl)s2)cc(N2CCN(CCO)CC2)n1` [dasatanib] + COc1cc(N2CCC(N3CCN(C)CC3)CC2)ccc1Nc1ncc(Cl)c(Nc2ccccc2S(=O)(=O)C(C)C)n1 [NVP-TAE684] (first compound 0.004 µM, partner dose 0.08 µM) was run?
A: 153%

Q: How did the “cleaved PARP positive nuclei fraction” value turn out when `Cn1c(Nc2ccc(C(F)(F)F)cc2)nc2cc(Oc3ccnc(-c4ncc(C(F)(F)F)[nH]4)c3)ccc21` + Cc1cc([N+](=O)[O-])ccc1NS(=O)(=O)c1cc(Cl)ccc1Cl [FH535] (first compound 0.08 µM, partner dose 1 µM) was run?
A: 151%

Q: `O=C(CCCCCCC(=O)Nc1ccccc1)NO` [vorinostat] + O=S(=O)(c1ccccc1)N(CC(F)(F)F)c1ccc(C(O)(C(F)(F)F)C(F)(F)F)cc1 [T0901317] (first compound 0.08 µM, partner dose 1.4 µM) was tested. Which “cleaved PARP positive nuclei fraction” value did it give?
A: 16.8%

Q: With `CC(C)(C)c1cnc(CSc2cnc(NC(=O)C3CCNCC3)s2)o1` + CCc1ccc(CCOc2ccc(CC3SC(=O)NC3=O)cc2)nc1 [pioglitazone] (first compound 0.01 µM, partner dose 2 µM) as the compound, how does the “cleaved PARP positive nuclei fraction” value read?
A: 93.7%

Q: How did the “cleaved PARP positive nuclei fraction” value turn out when `COc1cc(Nc2ncc(F)c(Nc3ccc4c(n3)NC(=O)C(C)(C)O4)n2)cc(OC)c1OC` [Tamatinib] + Cn1cc(/C=C2\C(=O)Nc3cccnc32)c2ccccc21 [GW441756] (first compound 0.4 µM, partner dose 0.4 µM) was run?
A: 183%

Q: For `C#Cc1cccc(Nc2ncnc3cc(OCCOC)c(OCCOC)cc23)c1` [erlotinib] + N#Cc1c(O)c2c(-c3ccc(-c4ccccc4O)cc3)csc2[nH]c1=O [A769662] (first compound 0.8 µM, partner dose 2 µM), which “cleaved PARP positive nuclei fraction” value is on record?
A: 37%

Q: Which “cleaved PARP positive nuclei fraction” value does the source give for `OCCn1cc(-c2cnc3nnn(Cc4ccc5ncccc5c4)c3n2)cn1` + COc1cc(N2CCC(N3CCN(C)CC3)CC2)ccc1Nc1ncc(Cl)c(Nc2ccccc2S(=O)(=O)C(C)C)n1 [NVP-TAE684] (first compound 1 µM, partner dose 0.08 µM) here?
A: 264%

Q: `O=C(Nc1cccc(Cl)c1)Nc1ncc(CCNc2ncnc3ccsc23)s1` + COc1ccc(COc2ccc(Cc3cnc(N)nc3N)cc2OC)cc1 [GW2580] (first compound 0.0008 µM, partner dose 1 µM) was tested. Which “cleaved PARP positive nuclei fraction” value did it give?
A: 134%

Q: How did the “cleaved PARP positive nuclei fraction” value turn out when `Cc1nc(Nc2ncc(C(=O)Nc3c(C)cccc3Cl)s2)cc(N2CCN(CCO)CC2)n1` [dasatanib] + O=C1NC(=O)/C(=C/c2ccc(-c3ccc(F)cc3O)o2)S1 [AS252424] (first compound 0.004 µM, partner dose 1 µM) was run?
A: 117%

Q: For `C[C@]1(c2nc3c(C(N)=O)cccc3[nH]2)CCCN1` [Veliparib] + Cc1cc([N+](=O)[O-])ccc1NS(=O)(=O)c1cc(Cl)ccc1Cl [FH535] (first compound 1.4 µM, partner dose 1 µM), which “cleaved PARP positive nuclei fraction” value is on record?
A: 90.4%

Q: Which “cleaved PARP positive nuclei fraction” value does the source give for `C[C@@H]1CCN(C(=O)CC#N)C[C@@H]1N(C)c1ncnc2[nH]ccc12` + COc1cc2ncnc(Nc3ccc(Oc4ccccc4)cc3)c2cc1OC [SrcI1] (first compound 1 µM, partner dose 2 µM) here?
A: 79.3%

Q: How did the “cleaved PARP positive nuclei fraction” value turn out when `CC1(C)NC(=O)N(c2ccc([N+](=O)[O-])c(C(F)(F)F)c2)C1=O` [nilutamide] + c1cc(-c2cnn3cc(-c4ccc(OCCN5CCCCC5)cc4)cnc23)ccn1 [Dorsomorphin] (first compound 1 µM, partner dose 0.4 µM) was run?
A: 80%

Q: `C[C@@H]1CCN(C(=O)CC#N)C[C@@H]1N(C)c1ncnc2[nH]ccc12` + c1cc(-c2cnn3cc(-c4ccc(OCCN5CCCCC5)cc4)cnc23)ccn1 [Dorsomorphin] (first compound 1 µM, partner dose 0.4 µM) was tested. Which “cleaved PARP positive nuclei fraction” value did it give?
A: 49.9%

Q: Which “cleaved PARP positive nuclei fraction” value does the source give for `NC(=O)Nc1cc(-c2cccc(F)c2)sc1C(=O)N[C@H]1CCCNC1` + O=S(=O)(c1ccccc1)N(CC(F)(F)F)c1ccc(C(O)(C(F)(F)F)C(F)(F)F)cc1 [T0901317] (first compound 0.02 µM, partner dose 1.4 µM) here?
A: 81%

Q: `O=C(Nc1cccc(Cl)c1)Nc1ncc(CCNc2ncnc3ccsc23)s1` + COc1cc(N2CCC(N3CCN(C)CC3)CC2)ccc1Nc1ncc(Cl)c(Nc2ccccc2S(=O)(=O)C(C)C)n1 [NVP-TAE684] (first compound 0.0008 µM, partner dose 0.08 µM) was tested. Which “cleaved PARP positive nuclei fraction” value did it give?
A: 100%

Q: How did the “cleaved PARP positive nuclei fraction” value turn out when `C[C@]1(c2nc3c(C(N)=O)cccc3[nH]2)CCCN1` [Veliparib] + O=S(=O)(c1ccccc1)N(CC(F)(F)F)c1ccc(C(O)(C(F)(F)F)C(F)(F)F)cc1 [T0901317] (first compound 1.4 µM, partner dose 1.4 µM) was run?
A: 122%

Q: With `Cc1nc(Nc2ncc(C(=O)Nc3c(C)cccc3Cl)s2)cc(N2CCN(CCO)CC2)n1` [dasatanib] + CCc1ccc(CCOc2ccc(CC3SC(=O)NC3=O)cc2)nc1 [pioglitazone] (first compound 0.004 µM, partner dose 2 µM) as the compound, how does the “cleaved PARP positive nuclei fraction” value read?
A: 161%

Q: Which “cleaved PARP positive nuclei fraction” value does the source give for `CC1(C)NC(=O)N(c2ccc([N+](=O)[O-])c(C(F)(F)F)c2)C1=O` [nilutamide] + O=c1cc(-c2cccc3c2Sc2ccccc2S3)oc(N2CCOCC2)c1 [KU55933] (first compound 1 µM, partner dose 1 µM) here?
A: 57.4%

Q: With `COc1cc(Nc2ncc(F)c(Nc3ccc4c(n3)NC(=O)C(C)(C)O4)n2)cc(OC)c1OC` [Tamatinib] + Oc1nc(-c2ccc(C(F)(F)F)cc2)nc2c1CSCC2 [XAV939] (first compound 0.4 µM, partner dose 2 µM) as the compound, how does the “cleaved PARP positive nuclei fraction” value read?
A: 211%

Q: With `O=C(CCCCCCC(=O)Nc1ccccc1)NO` [vorinostat] + O=C(O)C(=O)Nc1sc2c(c1C(=O)O)CCNC2 [TCS401] (first compound 0.08 µM, partner dose 1.66667 µM) as the compound, how does the “cleaved PARP positive nuclei fraction” value read?
A: 52.2%
